Measured values published in patent US5093475A (priority 1989, dated 1992).
At least one compound was matched to its structure with a doubt left. Marks after values point to notes of the source that are not given here.

Assay: Glutathione-induced TNB release from 791/iminothiolane/TNB (disulfide stability)
Type: physicochemical
Details: ca. 10 μM protein-S-S-TNB, 200 μM glutathione, PBS, 0.5 mM EDTA, pH 7.25; 25° C.
Method: d. The initial rate of TNB release from 791/iminothiolane/TNB induced by glutathione. Samples contained ca. 10 μM of protein-S-S-TNB and 200 μM of glutathione in PBS containing 0.5 mM EDTA, pH 7.25, and were monitored at 412nm. FIG. 1 presents the results graphically.
The relative increase in disulfide stability was also compared to 791/SPDP/TNB, and was determined as for 2IT.
791/SPDP/TNB was prepared by derivatizing 791 mAb with SPDP following conventional procedures and conditions, removing any byproducts by gel filtration, releasing the PDP group with 1 mM DTT, and then reacting the liberated sulfhydryl with DTNB. Following gel filtration, the rate of TNB release was measured as in Example 19d above.

With `O=C(CCSSc1ccccn1)ON1C(=O)CCC1=O` [SPDP, N-succinimidyl-3-(2-pyridyldithio)propionate, reference compound] the “Reaction rate, TNB, k × 10^5 (initial rate of TNB release from 791/linker/TNB)” value was 262.0 s^-1 (k × 10^5).
